Where a sequence shows no end group, the ends are not given.
Assay: general procedure: Fmoc solid-phase peptide synthesis; Fmoc-Ala-Wang Resin; HOBt/DIC; recoupling by symmetrical anhydride (DIC)
Details: acetate salt

YARAAARQARAKALARQLGVAA
step yield (purification step, purification and lyophilization steps): 50-55% | crude mass (whole synthesis): approximately 1250 grams

From US10562947B2 (MOERAE MATRIX, INC., priority 2011, dated 2020)
